Reference: patent US20230167184A1
Results are given in words; binding and its absence hold for the method and conditions named. Some entries that bind do so weakly or less than the wild type.

By UniProt entry, the sequences of proteins in these tests, tags left out. Where a name states a change or a piece, a line headed by the entry shows the natural chain unless it says otherwise. Residues count along the entry.
UniProt Q02223: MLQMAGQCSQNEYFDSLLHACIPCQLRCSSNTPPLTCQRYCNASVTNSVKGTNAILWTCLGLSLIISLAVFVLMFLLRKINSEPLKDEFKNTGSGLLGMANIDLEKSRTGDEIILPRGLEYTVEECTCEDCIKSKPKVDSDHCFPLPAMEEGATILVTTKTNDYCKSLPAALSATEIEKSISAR
BCMA (antigen adsorbed onto the immunotube for panning): residues 1-54 of Q02223

Assays:
[1] = target: BCMA (antigen adsorbed onto the immunotube for panning) (UniProt Q02223); test: phage display panning on BCMA adsorbed to an immunotube, three or four rounds
[2] = target: BCMA on the surface of Raji cells (UniProt Q02223); test: FACS on Raji cells, scFv at 13.2 ug/mL, detected with anti-HA-PE (FIG. 1)

B1: OPAL B10 anti-BCMA scFv antibody (scFv, not shown: large carriers)
scFv: EVQLLESGGGLVQPGGSLRLSCAASGFTFSDYYMSWVRLAPGKGLEWVSAISHSSGNTYYADSVKGRFTISRDNSKNTLYLQMNSLRAEDTAVYYCAKNNWGFDYWGQGTLVTVSSGGGGSGGGGSGGGGSQSVLTQPPSASGTPGQRVTISCTGSSSNIGSNDVTWYQQLPGTAPKLLIYSDSKRPSGVPDRFSGSKSGTSASLAISGLRSEDEADYYCAAWDASLSGYVFGGGTKLTVL
In the case of B1, the binding [1] is reported as “binds” and the binding [2] is reported as “binds”.
